Reference: patent publication US10870886B2, “Molecular diagnosis of FSHD by epigenetic signature” (University of Massachusetts Medical Center, priority 2014, dated 2020)
Read-outs that look alike come from different tables or passages of the source. For at least one compound, name, drawing or mass did not settle the structure.

Assays:
DUX4-fl [1] = settings: immortalized human KD3 myoblasts; cited from earlier work
DUX4-fl [2] = assay: DUX4-fl mRNA expression by qRT-PCR in myogenic cells treated with epigenetic drugs; type: cell-based, human; settings: cohorts 15, 28, 29, 30 of FSHD-affected and nonmanifesting cells; chaetocin 50 nM last 24 hrs
Experimental: Drug treatment. Stock solutions of 100 mM 5-Aza-2′-deoxycytidine/Decitabine, (Sigma-Aldrich A3656) in DMSO, 5 mM Trichostatin A solution (TSA, Sigma-Aldrich T1952), and 10 mM chaetocin (Sigma-Aldrich C9492) in DMSO were stored at −20° C. and diluted with PBS just before adding to the culture. To minimize culturing artifacts, low passage (<30 population doublings) myoblast cultures were used for all experiments and culture pairs for affected vs healthy or affected vs nonmanifesting were within 1 passage of each other in all instances. Myoblasts were seeded on collagen-coated plates at a cell density of 1.9×10^3/cm^2. Starting the following day, Decitabine (5 μM final concentration) was added daily for a total of 3 days. When used, TSA (200 nM final concentration) or chaetocin (50 nM final concentration) was added to the cells for the last 24 hrs prior to sampling.
qRT-PCR. Total RNAs were extracted using Trizol (Invitrogen) and purified using the RNeasy Mini kit (Qiagen) after on-column DNase I digestion. Total RNA (2 μg) was used for cDNA synthesis using Superscript III Reverse Transcriptase (Invitrogen), and 200 ng of cDNA were used for DUX4-fl qPCR analysis as described. All data were normalized to levels of 18S rRNA [98]. Oligonucleotide primer sequences are provided in [33]. For the analysis of ANKRD1 mRNA expression, 40 ng of cDNA were used with primers hANKRD1 For: […] […]

## CN1C(=O)[C@@]23C[C@]4([C@]56C[C@@]78SS[C@@](CO)(C(=O)N7[C@H]5Nc5ccccc56)N(C)C8=O)c5ccccc5N[C@@H]4N2C(=O)[C@]1(CO)SS3 [chaetocin]
DUX4-fl [1]
  DUX4-fl expression: induces DUX4-fl expression
DUX4-fl [2]
  DUX4-fl expression: induced DUX4-fl expression
